Measured values taken from patent US20260285855A1, “HETEROARYL DERIVATIVES AS DDRS INHIBITORS” (CHIESI FARMACEUTICI S.P.A., priority 2023, published 2026).

Sequences of proteins named here, by UniProt entry; tags and fusion partners are left off. Residues count along the entry.
UniProt Q08345, 19-913 limits assumed: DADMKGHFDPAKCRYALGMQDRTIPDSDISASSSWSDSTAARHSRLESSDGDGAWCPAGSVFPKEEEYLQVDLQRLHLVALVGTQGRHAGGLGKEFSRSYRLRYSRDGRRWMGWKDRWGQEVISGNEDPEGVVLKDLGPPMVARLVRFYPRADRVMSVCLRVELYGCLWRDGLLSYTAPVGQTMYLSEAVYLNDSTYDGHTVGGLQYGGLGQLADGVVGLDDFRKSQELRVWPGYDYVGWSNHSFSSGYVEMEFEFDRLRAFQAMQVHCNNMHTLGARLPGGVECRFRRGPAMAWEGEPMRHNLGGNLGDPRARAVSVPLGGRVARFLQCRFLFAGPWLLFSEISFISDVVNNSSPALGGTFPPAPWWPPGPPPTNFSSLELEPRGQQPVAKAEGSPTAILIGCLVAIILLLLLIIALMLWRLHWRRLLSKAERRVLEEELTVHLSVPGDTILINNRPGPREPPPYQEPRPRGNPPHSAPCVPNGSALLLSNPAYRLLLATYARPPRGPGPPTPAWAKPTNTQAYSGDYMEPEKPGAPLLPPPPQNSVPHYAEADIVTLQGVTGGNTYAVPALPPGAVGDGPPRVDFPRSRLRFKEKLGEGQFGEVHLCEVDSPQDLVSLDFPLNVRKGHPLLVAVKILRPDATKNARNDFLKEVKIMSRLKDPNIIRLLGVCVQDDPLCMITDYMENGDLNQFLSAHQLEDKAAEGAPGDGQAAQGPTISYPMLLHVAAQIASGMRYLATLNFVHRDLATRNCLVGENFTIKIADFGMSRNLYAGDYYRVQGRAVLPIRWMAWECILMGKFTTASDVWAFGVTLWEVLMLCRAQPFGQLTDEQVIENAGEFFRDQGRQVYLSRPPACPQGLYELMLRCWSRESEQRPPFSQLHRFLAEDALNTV
UniProt Q16832, 22-855 limits assumed: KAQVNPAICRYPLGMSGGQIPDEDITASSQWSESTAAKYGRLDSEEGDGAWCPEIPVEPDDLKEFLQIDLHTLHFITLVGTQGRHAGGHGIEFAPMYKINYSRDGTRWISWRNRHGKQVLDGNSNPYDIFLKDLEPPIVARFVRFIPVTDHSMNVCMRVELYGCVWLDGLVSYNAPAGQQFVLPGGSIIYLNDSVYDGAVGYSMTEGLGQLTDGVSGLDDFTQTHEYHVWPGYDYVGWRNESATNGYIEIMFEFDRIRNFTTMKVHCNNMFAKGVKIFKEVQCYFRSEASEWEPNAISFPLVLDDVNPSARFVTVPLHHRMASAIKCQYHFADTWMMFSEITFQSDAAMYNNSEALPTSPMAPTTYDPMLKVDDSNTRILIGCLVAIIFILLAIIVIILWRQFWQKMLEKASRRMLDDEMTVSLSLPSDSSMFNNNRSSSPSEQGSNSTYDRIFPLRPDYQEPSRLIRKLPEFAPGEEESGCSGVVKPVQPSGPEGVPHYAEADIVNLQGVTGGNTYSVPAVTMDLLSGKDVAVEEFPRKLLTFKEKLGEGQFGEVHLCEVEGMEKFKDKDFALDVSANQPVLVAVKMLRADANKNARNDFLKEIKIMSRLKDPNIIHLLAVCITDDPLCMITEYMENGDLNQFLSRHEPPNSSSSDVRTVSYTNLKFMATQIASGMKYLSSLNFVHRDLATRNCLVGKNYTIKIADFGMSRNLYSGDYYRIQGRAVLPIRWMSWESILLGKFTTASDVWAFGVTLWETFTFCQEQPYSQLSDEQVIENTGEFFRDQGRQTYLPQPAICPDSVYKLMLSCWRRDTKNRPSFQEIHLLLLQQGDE

Assays:
DDR1 = DDR1 (Homo sapiens, UniProt Q08345); assay: LanthaScreen Europium Kinase Binding assay, DDR1; conditions: read-out: Ki DDR1; 5 nM DDR1, 20 nM Kinase Tracer 178, 1 h at rt; Ki from IC50 by Cheng-Prusoff
DDR2 = DDR2 (Homo sapiens, UniProt Q16832); assay: LanthaScreen Europium Kinase Binding assay, DDR2; conditions: read-out: Ki DDR2; 5 nM DDR2, 10 nM Kinase Tracer 178, 1 h at rt; Ki from IC50 by Cheng-Prusoff

Structure (SMILES)	Ki (DDR1) [nM]	Ki (DDR2) [nM]
Cn1nc(C(C)(C)C)cc1NC(=O)NC1CC2(C1)CN(C(=O)c1ncnc3ccsc13)C2	< 5	5 to 25
CN(C(=O)Nc1cncc(C(F)(F)F)c1)C1CC2(C1)CN(C(=O)c1cnn3ccc(-c4cnn(C)c4)cc13)C2	< 5	5 to 25
O=C(Nc1cccc(C(F)(F)F)c1)NC1CC2(C1)CN(C(=O)c1cnn3cc[nH]c13)C2	< 5	< 5
O=C(Nc1cccc(C(F)(F)F)c1)NC1CC2(C1)CN(C(=O)c1ncnc3[nH]ccc13)C2	< 5	< 5
CN(C(=O)Nc1cc(C(C)(C)C(F)(F)F)no1)C1CC2(C1)CN(C(=O)c1cnn3ccn(C)c13)C2	< 5	5 to 25
O=C(Nc1cncc(C(F)(F)F)c1)NC1CC2(C1)CN(C(=O)c1ncnc3ccsc13)C2	< 5	< 5
CN(C(=O)Nc1cccc(C(F)(F)F)c1)C1CC2(C1)CN(C(=O)c1cnc3ccccn13)C2	< 5	5 to 25
CN(C(=O)Nc1cc(OC(F)(F)F)ccn1)C1CC2(C1)CN(C(=O)c1cnn3ccn(CCO)c13)C2	< 5	25 to 100
O=C(CC1CC2(C1)CN(C(=O)c1cnn3ccncc13)C2)Nc1cccc(C(F)(F)F)c1	< 5	5 to 25

Structures were worked out from names or drawings and are uncertain.
